From article PMC5061317, “Transactivation Assays to Assess Canine and Rodent Pregnane X Receptor (PXR) and Constitutive Androstane Receptor (CAR) Activation” (PLoS ONE, 2016) come the findings set out here.

Each structure is given as a SMILES string.

In test [1] the target is T1, rat CAR3 (Rattus norvegicus, UniProt Q9QUS1, INS280APYLT).
T1 sequence (Q9QUS1 with tags, fused parts or gaps INS280APYLT): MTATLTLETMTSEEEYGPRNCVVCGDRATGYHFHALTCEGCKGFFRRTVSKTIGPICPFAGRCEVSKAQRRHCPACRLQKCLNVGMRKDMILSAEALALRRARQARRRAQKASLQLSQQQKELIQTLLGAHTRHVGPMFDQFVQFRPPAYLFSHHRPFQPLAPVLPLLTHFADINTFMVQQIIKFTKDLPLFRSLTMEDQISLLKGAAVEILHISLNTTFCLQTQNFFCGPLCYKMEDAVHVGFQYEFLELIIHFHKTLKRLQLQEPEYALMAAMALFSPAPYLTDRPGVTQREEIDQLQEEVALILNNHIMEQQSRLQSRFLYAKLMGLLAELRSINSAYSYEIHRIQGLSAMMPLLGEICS
T1 sequence (P19793 1-462 partner): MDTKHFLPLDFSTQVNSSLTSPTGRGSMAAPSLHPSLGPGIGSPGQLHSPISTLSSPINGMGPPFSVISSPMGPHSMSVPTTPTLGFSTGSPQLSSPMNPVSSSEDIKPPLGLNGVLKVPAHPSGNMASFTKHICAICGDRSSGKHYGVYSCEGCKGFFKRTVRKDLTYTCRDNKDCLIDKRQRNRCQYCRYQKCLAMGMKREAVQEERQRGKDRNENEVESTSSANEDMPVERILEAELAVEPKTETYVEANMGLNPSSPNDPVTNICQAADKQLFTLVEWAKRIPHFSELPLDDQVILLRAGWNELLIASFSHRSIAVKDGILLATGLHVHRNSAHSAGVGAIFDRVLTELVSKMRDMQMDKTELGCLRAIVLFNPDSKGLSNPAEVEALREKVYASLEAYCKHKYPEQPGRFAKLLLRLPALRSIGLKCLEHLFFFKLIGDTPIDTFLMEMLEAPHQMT
The test can be described thus: Rat CAR3 transactivation assay with CYP2B6 promoter/enhancer reporter (rCAR3/2B6). Format: cell-based. Also noted: expressed in transfected cells; host or cells: HepG2 (transient transfection). Conditions: dose-response 0.01 μM to 20 μM, 48 h; read-out: EC50, rCAR3/2B6 activation. The protocol: (§1) To construct an expression vector harboring canine CAR3, reference CAR sequence (CAR1) for canine (Accession number: FJ202015) was amplified from C. familiaris liver cDNA. PCR conditions were 98°C for 2 min, 30 cycles of 98°C for 30 sec and 72°C for 1 min, followed by 72°C for 7 min and cooling to 4°C. The resulting PCR product was cloned into the pCR2.1 vector for sequence analysis and subsequently cloned into a pCDNA 3.1 expression vector (Life Technologies, Carlsbad, CA). […] Canine CAR1 was mutated to obtain CAR3 by introducing […] motif. This was performed using forward primer: 5’- […] -3’ and reverse primer: 5’- […] -3’ in concert with QuikChange Lightning mutagenesis kit (Agilent) according to manufacturer’s instructions. The presence of correct canine CAR3 was verified by sequence analysis. […]
(§2) Assessment of cell viability and transcriptional activation was performed in the same wells using the CellTiter-Fluor cell viability assay and ONE-Glo Luciferase assay. Fluorescence was determined on a BioTek Synergy 2 Luminometer (BioTek Instruments, Winooski, VT) with excitation at 400 nm and emission at 510 nm. Following viability determination luminescence was monitored.
(§3) Fluorescent light units were utilized to normalize for viable cell number in the luciferase (transcriptional activation) assay and expressed as the average of three determinations/chemical agent and concentration. […]

Test [2] deals with T1, rat CAR3. Put plainly: Rat CAR3 transactivation assay with CYP3A4 promoter/enhancer reporter (rCAR3/3A4). The protocol: as §1, §2, §3

`Clc1ccccc1C(c1ccccc1)(c1ccccc1)n1ccnc1` [Clotrimazole]: the EC50 is 1400 nM at rat CAR3 [1] and 4100 nM at rat CAR3 [2].
